Reference: article PMC2878639
Results are given in words; binding and its absence hold for the method and conditions named.

Target: HsdR subunit of the type I restriction-modification enzyme EcoR124I (UniProt P10486)
Assay: AUC; sedimentation velocity, HsdR at 4.5 μM in buffer A (10 mM Tris-HCl pH 8.0, 100 mM NaCl, 1 mM Na2EDTA), 10 °C, 40,000 rpm, absorbance at 280 nm, Sedfit c(s) and c(M); also with 100-fold excess of ATP (identical S value); both purified

binding: no binding (tested: 4.5 μM)
B1: HsdR subunit of the type I restriction-modification enzyme EcoR124I (enzyme, UniProt P10486 1-1038)
chain: MTHQTHTIAESNNFIVLDKYIKAEPTGDSYQSESDLERELIQDLRNQGYEFISVKSQSAMLANVREQLQNLNGVVFNDSEWRRFTEQYLDNPSDGILDKTRKIHIDYICDFIFDDERLENIYLIDKKNLMRNKVQIIQQFEQAGSHANRYDVTILVNGLPLVQIELKKRGVAIREAFNQIHRYSKESFNSENSLFKYLQLFVISNGTDTRYFANTTKRDKNSFDFTMNWAKSDNTLIKDLKDFTATCFQKHTLLNVLVNYSVFDSSQTLLVMRPYQIAATERILWKIKSSFTAKNWSKPESGGYIWHTTGSGKTLTSFKAARLATELDFIDKVFFVVDRKDLDYQTMKEYQRFSPDSVNGSENTAGLKRNLDKDDNKIIVTTIQKLNNLMKAESDLPVYNQQVVFIFDECHRSQFGEAQKNLKKKFKRYYQFGFTGTPIFPENALGSETTASVFGRELHSYVITDAIRDEKVLKFKVDYNDVRPQFKSLETETDEKKLSAAENQQAFLHPMRIQEITQYILNNFRQKTHRTFPGSKGFNAMLAVSSVDAAKAYYATFKRLQEEAANKSATYKPLRIATIFSFAANEEQNAIGEISDETFDTSAMDSSAKEFLDAAIREYNSHFKTNFSTDSNGFQNYYRDLAQRVKNQDIDLLIVVGMFLTGFDAPTLNTLFVDKNLRYHGLMQAFSRTNRIYDATKTFGNIVTFRDLERSTIDAITLFGDKNTKNVVLEKSYTEYMEGFTDAATGEAKRGFMTVVSELEQRFPDPTSIESEKEKKDFVKLFGEYLRAENILQNYDEFATLKALQQIDLSDPVAVEKFKAEHYVDDEKFAELQTIRLPADRKIQDYRSAYNDIRDWQRREKEAEKKEKSTTDWDDVVFEVDLLKSQEINLDYILGLIFEHNRQNKGKGEMIEEVKRLIRSSLGNRAKEGLVVDFIQQTNLDDLPDKASIIDAFFTFAQREQQREAEALIKEENLNEDAAKRYIRTSLKREYATENGTELNETLPKLSPLNPQYKTKKQAVFQKIVSFIEKFKGVGGKI
